From patent publication US4551453A, “2-(ω-Alkylaminoalkyl)- and 2-(ω-dialkylaminoalkyl-3-(4-X-benzylidene)-phthalimidines” (Laboratori Baldacci SpA, priority 1982, dated 1985)

Test: in vivo
Details: mouse, iv

## CCN(CC)CC(=O)Nc1c(C)cccc1C [lidocaine]
  LD50: 32 mg/kg
